From article PMC13140519 come the findings set out here.

This data set concerns MBP-TaBZR1 (Triticum aestivum). In words: EMSA. To be noted: 100 ng protein, LightShift Chemiluminescent EMSA kit binding buffer, 20 min, pH and temperature not stated, recombinant protein, protein details: MBP. For orientation: In EMSA bound probe runs differently from free probe, usually more slowly.

For at least one entry, the source does not settle the construct or the ends of the probe.

As to “AGAATTCATATGAACATTGTCGTGTGCAGAGTTTAGTGCATGTGAATGTTAGAATTCATATGAACATTGTCGTGTGCAGAGTTTAGTGCATGTGAATGTT (double strand) [TaATG8g-2D-Probe]”, the binding result is given as “binds”.
In the case of “GGCGACCGTGGGCACGTGACTGGGAGGGCGACCGTGGGCACGTGACTGGGAG (double strand) [TaATG8g-2B-Probe]”, the binding result is given as “binds”.
“GGGTGGCGTGTCGCGGCTGTATTGCGTGCACAACTCGGGTGGCGTGTCGCGGCTGTATTGCGTGCACAACTC (double strand) [TaATG8g-2A-Probe]”: the binding result is “binds”.
